Experimental data as given in PubChem BioAssay AID493014 (National Center for Advancing Translational Sciences (NCATS), 2011).
This is one part of the list. These are further read-outs of the screen, such as a control signal, another cell line or another target. No call is given for them. The list favours compounds with an active or inconclusive main result. Potencies come from curve fits of mixed quality, noted in brackets.

Assay: qHTS Assay to Find Inhibitors of Chronic Active B-Cell Receptor Signaling
Conditions: ABC-DLBCL IkBa-CBG/CBR reporter, luminescence ratio (green luciferase fused to IkBa over red control in TMD8 lymphoma cells), 4 h
How it was run: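 Concentration-response series (up to 46 uM) were applied to TMD8 dual-reporter cells for 4 h at 37C with doxycycline. Green/red ratio, after filter-overlap correction, defined %Activity; red signal alone was normalised to basal cells and zero luminescence.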

[1] = measured here: CBR red luminescence, cell number
[2] = measured here: IkBa-CBG green luminescence

Row | SMILES | AC50 [1] | AC50 [2]
1 | CCOC(=O)Cn1c2[n+](c3ccccc31)CC(O)CS2 (stereo not drawn) | 6.51 µM [falling, single point] | 
2 | Cc1nn(C)cc1/C=N/NC(=O)CSc1ccccn1 | 31.6 µM [rising, single point] | 
3 | CC(NC(=O)C1CCCN1S(=O)(=O)c1cccc2cccnc12)c1ccccc1 (stereo not drawn) | 10.3 µM [rising, partial curve, poor fit] | 
4 | COC(=O)[C@@]1(C)[C@H]2C(=O)N(Cc3ccccc3)C(=O)[C@H]2[C@H]2CN=C(SCc3ccc(C#N)cc3)N21 | 20.6 µM [rising, partial curve] | 
5 | O=C(Nc1ccc(NC(=O)c2ccccc2Cl)cc1)c1cccnc1 | 35.5 µM [falling, single point] | 
6 | O=C(Nc1nnc(SCC(=O)N2CCOCC2)s1)C1CC(=O)N(c2ccc(F)cc2)C1 (stereo not drawn) | 8.91 µM [falling, partial curve, poor fit] | 
7 | CC(=O)c1ccc(Nc2c(C)n(C)n(-c3ccccc3)c2=O)cc1 | 14.1 µM [falling, partial curve, poor fit] | 
8 | COc1ccc(C2C(C(=O)Nc3cc(OC)c(OC)c(OC)c3)c3ccccc3C(=O)N2C)cc1 (stereo not drawn) | 15.8 µM [rising, partial curve] | 31.6 µM [falling, single point]
9 | CCCCN(C(=O)c1cccc(S(=O)(=O)N2CCN(C)CC2)c1)c1c(N)n(CCCC)c(=O)[nH]c1=O | 20.6 µM [rising, single point] | 
10 | COc1ccc(/C=C2\SC(=S)N(CCC(=O)N3CCCCC3)C2=O)cc1 | 12.6 µM [falling, partial curve] | 
11 | CCCC(C(=O)Nc1ccc(S(=O)(=O)N2CCOCC2)cc1)c1ccccc1 (stereo not drawn) | 14.6 µM [rising, partial curve] | 
12 | COc1ccc(C(=O)OCc2cc(=O)n3c(C)csc3n2)cc1F | 2.06 µM [rising, full curve] | 
13 | C/C(=N\NC(=S)NCc1ccccc1)c1ccccc1F | 35.5 µM [rising, single point] | 31.6 µM [falling, single point]
14 | CCOC(=O)CNC(c1ccccc1)c1cc(Br)ccc1NC(=O)OCC (stereo not drawn) | 15.8 µM [falling, single point] | 
15 | COc1cccc(C(C(=O)NC(C)(C)C)N(C(=O)CCC(=O)Nc2cc(C)on2)C(C)C)c1OC (stereo not drawn) | 0.461 µM [falling, partial curve, poor fit] | 
16 | O=C(N/N=C/C1CC=CCC1)c1cc(Br)ccc1O (stereo not drawn) | 1.03 µM [falling, full curve] | 
17 | CN(CC(=O)Nc1ccc(F)c(F)c1F)C(=O)c1cc(-c2ccncc2)nc2ccccc12 | 13 µM [falling, partial curve, poor fit] | 
18 | Cc1nc(NC(=O)c2ccccc2)sc1-c1csc(NCc2ccco2)n1 | 18.4 µM [falling, single point] | 
19 | COc1ccccc1-n1cnc2cc(NCc3ccccn3)ccc21 | 3.55 µM [falling, partial curve, poor fit] | 
20 | N#Cc1c(NC(=O)CSCC(=O)O)sc2c1CCCC2 | 12.6 µM [falling, partial curve, poor fit] | 

3 of these compounds in another layout.
Row	SMILES	AC50 [1]	AC50 [2]
10	COc1ccc(/C=C2\SC(=S)N(CCC(=O)N3CCCCC3)C2=O)cc1	12.6 µM [falling, partial curve]	
11	CCCC(C(=O)Nc1ccc(S(=O)(=O)N2CCOCC2)cc1)c1ccccc1 (stereo not drawn)	14.6 µM [rising, partial curve]	
12	COc1ccc(C(=O)OCc2cc(=O)n3c(C)csc3n2)cc1F	2.06 µM [rising, full curve]	

(listing goes on)

Row | SMILES | AC50 [1] | AC50 [2]
21 | O=C(Nc1nc2c(s1)COc1ccccc1-2)c1cccs1 | 9.2 µM [falling, partial curve] | 0.184 µM [rising, full curve, poor fit]
22 | COc1ccc(N(CC(=O)Nc2cccc(N(C)S(C)(=O)=O)c2)S(=O)(=O)c2ccccc2)cc1Cl | 1.12 µM [falling, full curve, poor fit] | 
23 | Cc1n(Cc2ccccc2)c2ccccc2[n+]1Cc1ccccc1 | 8.91 µM [falling, partial curve] | 
24 | Cc1nn(-c2ccc(Cl)cc2)c(NC(=O)C(C)C)c(-c2ccccc2)c1=O | 5.62 µM [rising, single point] | 
25 | O=C(NCCNC(=O)c1cc(OCC(F)(F)F)ccc1OCC(F)(F)F)Nc1ccc(Cl)cc1 | 0.501 µM [rising, partial curve, poor fit] | 
26 | C[C@]12CCC3C(CC=C4C[C@@H](O)CC[C@@]43C)C1CCC2[C@]1(C)CCC(=O)O1 (stereo partly drawn) | 11.6 µM [rising, partial curve, poor fit] | 
27 | O=C(Nc1nc(-c2ccc(Cl)s2)cs1)c1cccs1 | 12.6 µM [falling, partial curve, poor fit] | 
28 | O=C(O)c1cccc(S(=O)(=O)Nc2ccc3c(c2)OCO3)c1 | 17.8 µM [rising, single point] | 
29 | Cc1ccccc1-n1sc2cc(F)ccc2c1=O | 11.2 µM [falling, partial curve] | 5.62 µM [falling, single point]
30 | O=C(Nc1ccc(F)cc1F)c1noc2c1CCC2 | 10.3 µM [falling, partial curve, poor fit] | 
31 | CCCN(C1CCS(=O)(=O)C1)S(=O)(=O)c1cc(OC)ccc1OC (stereo not drawn) | 20.6 µM [rising, single point] | 
32 | O=C(COC(=O)c1cccs1)NCC1CCCCC1 | 35.5 µM [rising, single point] | 
33 | Cc1cccnc1NC(=O)CNC(=O)c1sc2ccccc2c1Cl | 0.651 µM [falling, partial curve, poor fit] | 
34 | N/C(=N\OC(=O)c1ccc(Cl)cc1Cl)c1ccccc1 | 1.12 µM [rising, partial curve, poor fit] | 
35 | O=C(Nc1ccc(Cl)cc1C(=O)NCC1CCCO1)c1ccc(Cl)cc1Cl (stereo not drawn) | 0.517 µM [falling, partial curve, poor fit] | 
36 | Cc1cccc(-c2nc3ccc(C(=O)NCCN4CCN(C)CC4)cc3nc2-c2cccc(C)c2)c1 | 35.5 µM [falling, single point] | 
37 | COc1cc(OC)cc(-c2cc3cc4c(cc3cn2)OCO4)c1 |  | 9.2 µM [falling, partial curve]
38 | COc1ccccc1C(=O)Nc1cccc(C(=O)N2CCOCC2)c1 | 3.16 µM [falling, partial curve, poor fit] | 
39 | C=CCn1cc(C(=O)NCCCOCC)c(=O)c2cc(S(=O)(=O)N(CC)CC)ccc21 | 4.47 µM [rising, single point] | 
